# Measured values as given in the supplement of paper PMC8728848.
# This is one part of the list.
# Tests used:
# Test in all cases: glycan array binding signal (z-score within array); higher = stronger binding
# Settings in all cases: glycan notation: IUPAC condensed, linker removed
# [1] = target: GlcNAc(b1-2)Gal(b1-3)GalNAc
# Summary of the method: (§1)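 Columns mapping to the same glycan were averaged after glycan names were converted to IUPAC-condensed notation. The data come from 3228 arrays in the Consortium for Functional Glycomics database, limited to those with an available protein sequence. Binding is reported as a within-array Z-score averaged across arrays of one protein sequence and across linkers.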
# [2] = target: GlcNAc(b1-2)Man(a1-3)[GlcNAc(b1-2)Man(a1-6)]Man(b1-4)GlcNAc(b1-4)GlcNAc
# Summary of the method: as §1
# [3] = target: GlcNAc(b1-2)Man(a1-3)[GlcNAc(b1-2)Man(a1-6)]Man(b1-4)GlcNAc(b1-4)[Fuc(a1-6)]GlcNAc
# Summary of the method: as §1
# [4] = target: GlcNAc(b1-2)Man(a1-3)[GlcNAc(b1-4)][GlcNAc(b1-2)Man(a1-6)]Man(b1-4)GlcNAc(b1-4)GlcNAc
# Summary of the method: as §1
# [5] = target: GlcNAc(b1-2)Man(a1-3)[GlcNAc(b1-4)][GlcNAc(b1-2)Man(a1-6)]Man(b1-4)GlcNAc(b1-4)[Fuc(a1-6)]GlcNAc
# Summary of the method: as §1
# [6] = target: GlcNAc(b1-2)[GlcNAc(b1-4)]Man(a1-3)[GlcNAc(b1-2)Man(a1-6)]Man(b1-4)GlcNAc(b1-4)GlcNAc
# Summary of the method: as §1
# [7] = target: GlcNAc(b1-2)[GlcNAc(b1-4)]Man(a1-3)[GlcNAc(b1-4)][GlcNAc(b1-2)Man(a1-6)]Man(b1-4)GlcNAc(b1-4)GlcNAc
# Summary of the method: as §1
# [8] = target: GlcNAc(b1-2)[GlcNAc(b1-4)]Man(a1-3)[GlcNAc(b1-4)][GlcNAc(b1-2)[GlcNAc(b1-6)]Man(a1-6)]Man(b1-4)GlcNAc(b1-4)GlcNAc
# Summary of the method: as §1
# [9] = target: GlcNAc(b1-2)[GlcNAc(b1-4)]Man(a1-3)[GlcNAc(b1-4)][GlcNAc(b1-2)[GlcNAc(b1-6)]Man(a1-6)]Man(b1-4)GlcNAc(b1-4)[Fuc(a1-6)]GlcNAc
# Summary of the method: as §1
# [10] = target: GlcNAc(b1-2)[GlcNAc(b1-6)]Man(a1-6)[GlcNAc(b1-2)Man(a1-3)]Man(b1-4)GlcNAc(b1-4)GlcNAc
# Summary of the method: as §1
# [11] = target: GlcNAc(b1-2)[GlcNAc(b1-6)]Man(a1-6)[GlcNAc(b1-2)Man(a1-3)]Man(b1-4)GlcNAc(b1-4)[Fuc(a1-6)]GlcNAc
# Summary of the method: as §1
# [12] = target: GlcNAc(b1-2)[GlcNAc(b1-6)]Man(a1-6)[GlcNAc(b1-4)][GlcNAc(b1-2)Man(a1-3)]Man(b1-4)GlcNAc(b1-4)GlcNAc
# Summary of the method: as §1
# GlcNAc(b1-3)Fuc = target: GlcNAc(b1-3)Fuc
# Summary of the method: as §1
# GlcNAc(b1-3)Gal = target: GlcNAc(b1-3)Gal
# Summary of the method: as §1
# [13] = target: GlcNAc(b1-3)Gal(b1-3)GalNAc
# Summary of the method: as §1
# GlcNAc(b1-3)Gal(b1-4)Glc = target: GlcNAc(b1-3)Gal(b1-4)Glc
# Summary of the method: as §1
# [14] = target: GlcNAc(b1-3)Gal(b1-4)GlcNAc
# Summary of the method: as §1
# [15] = target: GlcNAc(b1-3)Gal(b1-4)GlcNAc(b1-2)Man(a1-3)[GlcNAc(b1-3)Gal(b1-4)GlcNAc(b1-2)Man(a1-6)]Man(b1-4)GlcNAc(b1-4)GlcNAc
# Summary of the method: as §1
# [16] = target: GlcNAc(b1-3)Gal(b1-4)GlcNAc(b1-2)Man(a1-3)[GlcNAc(b1-3)Gal(b1-4)GlcNAc(b1-2)Man(a1-6)]Man(b1-4)GlcNAc(b1-4)[Fuc(a1-6)]GlcNAc
# Summary of the method: as §1
# [17] = target: GlcNAc(b1-3)Gal(b1-4)GlcNAc(b1-2)[GlcNAc(b1-3)Gal(b1-4)GlcNAc(b1-6)]Man(a1-6)[GlcNAc(b1-3)Gal(b1-4)GlcNAc(b1-2)Man(a1-3)]Man(b1-4)GlcNAc(b1-4)GlcNAc
# Summary of the method: as §1
# [18] = target: GlcNAc(b1-3)Gal(b1-4)GlcNAc(b1-3)Gal(b1-4)GlcNAc
# Summary of the method: as §1
# [19] = target: GlcNAc(b1-3)Gal(b1-4)GlcNAc(b1-3)Gal(b1-4)GlcNAc(b1-2)Man(a1-3)[GlcNAc(b1-3)Gal(b1-4)GlcNAc(b1-3)Gal(b1-4)GlcNAc(b1-2)Man(a1-6)]Man(b1-4)GlcNAc(b1-4)GlcNAc
# Summary of the method: as §1
# [20] = target: GlcNAc(b1-3)Gal(b1-4)GlcNAc(b1-3)Gal(b1-4)GlcNAc(b1-2)Man(a1-3)[GlcNAc(b1-3)Gal(b1-4)GlcNAc(b1-3)Gal(b1-4)GlcNAc(b1-2)Man(a1-6)]Man(b1-4)GlcNAc(b1-4)[Fuc(a1-6)]GlcNAc
# Summary of the method: as §1
# [21] = target: GlcNAc(b1-3)Gal(b1-4)GlcNAc(b1-3)Gal(b1-4)GlcNAc(b1-2)[GlcNAc(b1-3)Gal(b1-4)GlcNAc(b1-3)Gal(b1-4)GlcNAc(b1-6)]Man(a1-6)[GlcNAc(b1-3)Gal(b1-4)GlcNAc(b1-3)Gal(b1-4)GlcNAc(b1-2)Man(a1-3)]Man(b1-4)GlcNAc(b1-4)[Fuc(a1-6)]GlcNAc
# Summary of the method: as §1
# [22] = target: GlcNAc(b1-3)Gal(b1-4)GlcNAc(b1-3)Gal(b1-4)GlcNAc(b1-3)Gal(b1-4)GlcNAc(b1-2)Man(a1-3)[GlcNAc(b1-3)Gal(b1-4)GlcNAc(b1-3)Gal(b1-4)GlcNAc(b1-3)Gal(b1-4)GlcNAc(b1-2)Man(a1-6)]Man(b1-4)GlcNAc(b1-4)GlcNAc
# Summary of the method: as §1
# [23] = target: GlcNAc(b1-3)Gal(b1-4)GlcNAc(b1-3)Gal(b1-4)GlcNAc(b1-3)Gal(b1-4)GlcNAc(b1-2)Man(a1-3)[GlcNAc(b1-3)Gal(b1-4)GlcNAc(b1-3)Gal(b1-4)GlcNAc(b1-3)Gal(b1-4)GlcNAc(b1-2)Man(a1-6)]Man(b1-4)GlcNAc(b1-4)[Fuc(a1-6)]GlcNAc
# Summary of the method: as §1
# [24] = target: GlcNAc(b1-3)Gal(b1-4)GlcNAc(b1-3)Gal(b1-4)GlcNAc(b1-3)Gal(b1-4)GlcNAc(b1-2)[GlcNAc(b1-3)Gal(b1-4)GlcNAc(b1-3)Gal(b1-4)GlcNAc(b1-3)Gal(b1-4)GlcNAc(b1-6)]Man(a1-6)[GlcNAc(b1-3)Gal(b1-4)GlcNAc(b1-3)Gal(b1-4)GlcNAc(b1-3)Gal(b1-4)GlcNAc(b1-2)Man(a1-3)]Man(b1-4)GlcNAc(b1-4)[Fuc(a1-6)]GlcNAc
# Summary of the method: as §1
# [25] = target: GlcNAc(b1-3)Gal(b1-4)GlcNAc(b1-3)Gal(b1-4)GlcNAc(b1-3)Gal(b1-4)GlcNAc(b1-3)Gal(b1-4)GlcNAc(b1-2)Man(a1-3)[GlcNAc(b1-3)Gal(b1-4)GlcNAc(b1-3)Gal(b1-4)GlcNAc(b1-3)Gal(b1-4)GlcNAc(b1-3)Gal(b1-4)GlcNAc(b1-2)Man(a1-6)]Man(b1-4)GlcNAc(b1-4)GlcNAc
# Summary of the method: as §1
# [26] = target: GlcNAc(b1-3)Gal(b1-4)GlcNAc(b1-3)Gal(b1-4)GlcNAc(b1-3)Gal(b1-4)GlcNAc(b1-3)Gal(b1-4)GlcNAc(b1-2)Man(a1-3)[GlcNAc(b1-3)Gal(b1-4)GlcNAc(b1-3)Gal(b1-4)GlcNAc(b1-3)Gal(b1-4)GlcNAc(b1-3)Gal(b1-4)GlcNAc(b1-2)Man(a1-6)]Man(b1-4)GlcNAc(b1-4)[Fuc(a1-6)]GlcNAc
# Summary of the method: as §1
# [27] = target: GlcNAc(b1-3)Gal(b1-4)GlcNAc(b1-3)Gal(b1-4)GlcNAc(b1-3)Gal(b1-4)GlcNAc(b1-3)Gal(b1-4)GlcNAc(b1-2)[GlcNAc(b1-3)Gal(b1-4)GlcNAc(b1-3)Gal(b1-4)GlcNAc(b1-3)Gal(b1-4)GlcNAc(b1-3)Gal(b1-4)GlcNAc(b1-6)]Man(a1-6)[GlcNAc(b1-3)Gal(b1-4)GlcNAc(b1-3)Gal(b1-4)GlcNAc(b1-3)Gal(b1-4)GlcNAc(b1-3)Gal(b1-4)GlcNAc(b1-2)Man(a1-3)]Man(b1-4)GlcNAc(b1-4)[Fuc(a1-6)]GlcNAc
# Summary of the method: as §1
# [28] = target: GlcNAc(b1-3)Gal(b1-4)GlcNAc(b1-3)Gal(b1-4)GlcNAc(b1-3)GalNAc
# Summary of the method: as §1
# [29] = target: GlcNAc(b1-3)Gal(b1-4)GlcNAc(b1-3)GalNAc
# Summary of the method: as §1
# [30] = target: GlcNAc(b1-3)Gal(b1-4)GlcNAc(b1-3)[GlcNAc(b1-3)Gal(b1-4)GlcNAc(b1-3)]GalNAc
# Summary of the method: as §1
# [31] = target: GlcNAc(b1-3)Gal(b1-4)GlcNAc(b1-6)[Gal(b1-3)]GalNAc
# Summary of the method: as §1
# [32] = target: GlcNAc(b1-3)Gal(b1-4)GlcNAc(b1-6)[GlcNAc(b1-3)Gal(b1-3)]GalNAc
# Summary of the method: as §1
# [33] = target: GlcNAc(b1-3)Gal(b1-4)GlcNAc(b1-6)[GlcNAc(b1-3)]Gal(b1-4)GlcNAc
# Summary of the method: as §1
# GlcNAc(b1-3)GalNAc = target: GlcNAc(b1-3)GalNAc
# Summary of the method: as §1
binder,measurement,setting,value
Aap lectin (Staphylococcus epidermidis) (protein) VNLNYSSPFMSLLSMPADSSSNNTKNTIDIPPTTVKGRDNYDFYGRVDIESNPTDLNATNLTRYNYGQPPGTTTAGAVQFKNQVSFDKDFDFNIRVANNRQSNTTGADGWGFMFSKKDGDDFLKNGGILREKGTPSAAGFRIDTGYYNNDPLDKIQKQAGQGYRGYGTFVKNDSQGNTSKVGSGTPSTDFLNYADNTTNDLDGKFHGQKLNNVNLKYNASNQTFTATYAGKTWTATLSELGLSPTDSYNFLVTSS,glycan array binding signal (z-score),[1],-0.754
same,glycan array binding signal (z-score),[2],-0.868
same,glycan array binding signal (z-score),[3],2.72
same,glycan array binding signal (z-score),[4],-0.698
same,glycan array binding signal (z-score),[5],-0.679
same,glycan array binding signal (z-score),[6],0.373
same,glycan array binding signal (z-score),[7],-0.168
same,glycan array binding signal (z-score),[8],-0.694
same,glycan array binding signal (z-score),[9],-0.887
same,glycan array binding signal (z-score),[10],-0.879
same,glycan array binding signal (z-score),[11],0.281
same,glycan array binding signal (z-score),[12],-0.861
same,glycan array binding signal (z-score),GlcNAc(b1-3)Fuc,-0.498
same,glycan array binding signal (z-score),GlcNAc(b1-3)Gal,1.92
same,glycan array binding signal (z-score),[13],-0.342
same,glycan array binding signal (z-score),GlcNAc(b1-3)Gal(b1-4)Glc,0.941
same,glycan array binding signal (z-score),[14],-0.278
same,glycan array binding signal (z-score),[15],0.543
same,glycan array binding signal (z-score),[16],-0.827
same,glycan array binding signal (z-score),[17],-0.884
same,glycan array binding signal (z-score),[18],-0.777
same,glycan array binding signal (z-score),[19],3.83
same,glycan array binding signal (z-score),[20],-0.748
same,glycan array binding signal (z-score),[21],1.52
same,glycan array binding signal (z-score),[22],-0.015
same,glycan array binding signal (z-score),[23],2.52
same,glycan array binding signal (z-score),[24],-0.306
same,glycan array binding signal (z-score),[25],0.789
same,glycan array binding signal (z-score),[26],2.03
same,glycan array binding signal (z-score),[27],1.2
same,glycan array binding signal (z-score),[28],0.235
same,glycan array binding signal (z-score),[29],0.571
same,glycan array binding signal (z-score),[30],1.62
same,glycan array binding signal (z-score),[31],-0.757
same,glycan array binding signal (z-score),[32],-0.968
same,glycan array binding signal (z-score),[33],-0.401
same,glycan array binding signal (z-score),GlcNAc(b1-3)GalNAc,-0.693

# Two entries picked at random from those above:
binder,measurement,setting,value
Aap lectin (Staphylococcus epidermidis) (protein) VNLNYSSPFMSLLSMPADSSSNNTKNTIDIPPTTVKGRDNYDFYGRVDIESNPTDLNATNLTRYNYGQPPGTTTAGAVQFKNQVSFDKDFDFNIRVANNRQSNTTGADGWGFMFSKKDGDDFLKNGGILREKGTPSAAGFRIDTGYYNNDPLDKIQKQAGQGYRGYGTFVKNDSQGNTSKVGSGTPSTDFLNYADNTTNDLDGKFHGQKLNNVNLKYNASNQTFTATYAGKTWTATLSELGLSPTDSYNFLVTSS,glycan array binding signal (z-score),[22],-0.015
same,glycan array binding signal (z-score),[18],-0.777
